Source: paper PMC7029000
These are yes or no findings as the source states them, for the method shown. In cells and extracts the contact can be indirect. Here binding means that the protein was enriched with, or labelled near, the bait; the list need not be complete.

By UniProt entry, the sequences of proteins in these tests, tags left out.
UniProt P52480: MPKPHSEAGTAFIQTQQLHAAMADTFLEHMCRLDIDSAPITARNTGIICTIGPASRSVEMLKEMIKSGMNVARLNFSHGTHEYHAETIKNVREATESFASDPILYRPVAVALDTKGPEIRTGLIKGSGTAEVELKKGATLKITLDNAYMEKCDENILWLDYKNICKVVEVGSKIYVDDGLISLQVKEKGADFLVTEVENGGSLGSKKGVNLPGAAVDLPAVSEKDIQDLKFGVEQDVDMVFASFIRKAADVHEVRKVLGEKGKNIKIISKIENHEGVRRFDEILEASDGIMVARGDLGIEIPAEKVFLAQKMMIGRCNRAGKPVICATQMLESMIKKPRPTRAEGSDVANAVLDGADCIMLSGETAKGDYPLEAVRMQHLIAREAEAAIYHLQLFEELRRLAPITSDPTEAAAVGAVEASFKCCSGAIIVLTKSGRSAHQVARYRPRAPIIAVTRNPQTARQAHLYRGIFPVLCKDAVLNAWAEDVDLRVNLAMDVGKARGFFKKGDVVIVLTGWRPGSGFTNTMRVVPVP

Target: T1, Nrf2 (mouse (endogenous in primary astrocytes)) (UniProt Q60795)
T1 sequence: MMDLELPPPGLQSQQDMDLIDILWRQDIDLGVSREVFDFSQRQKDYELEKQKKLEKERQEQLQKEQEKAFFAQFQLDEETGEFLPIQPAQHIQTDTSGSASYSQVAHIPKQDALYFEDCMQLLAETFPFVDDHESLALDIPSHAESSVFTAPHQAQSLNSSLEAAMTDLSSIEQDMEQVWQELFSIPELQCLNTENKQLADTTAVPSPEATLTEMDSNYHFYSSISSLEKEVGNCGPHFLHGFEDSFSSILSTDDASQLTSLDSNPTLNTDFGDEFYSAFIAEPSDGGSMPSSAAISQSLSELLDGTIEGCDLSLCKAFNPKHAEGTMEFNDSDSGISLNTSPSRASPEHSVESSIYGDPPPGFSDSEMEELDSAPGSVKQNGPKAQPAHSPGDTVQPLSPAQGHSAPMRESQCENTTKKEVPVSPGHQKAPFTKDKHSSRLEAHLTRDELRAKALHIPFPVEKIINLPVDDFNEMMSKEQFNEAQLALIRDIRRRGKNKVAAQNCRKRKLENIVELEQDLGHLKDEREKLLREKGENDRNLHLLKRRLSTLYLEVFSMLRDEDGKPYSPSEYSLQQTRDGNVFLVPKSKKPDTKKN
Assay: affinity purification with mass spectrometry; anti-Nrf2 immunoprecipitate from primary astrocytes with or without quinpirole (DRD2 activation); label-free mass spectrometry, triplicates

- binding: binds
Substance: PKM2 (from UniProt P52480 1-531) (enzyme)
